Experimental data reported in article PMC9958104, “Arabidopsis histone H3 lysine 9 methyltransferases KYP/SUVH5/6 are involved in leaf development by interacting with AS1-AS2 to repress KNAT1 and KNAT2” (Communications Biology, 2023).
No constants are given. Whether binding was seen depends on the method and setting. In cells and extracts the contact can be indirect. Some entries that bind do so weakly or less than the wild type. Sequences can lack the tags named with a protein.

Columns and labels:
[1] = target: T1, … LEAVES1 (AS1), BiFC fusion (Arabidopsis thaliana) (UniProt O80931); test: split reporter; BiFC (YN/YC halves of YFP) in transiently transformed Arabidopsis protoplasts; confocal microscopy
T1 sequence: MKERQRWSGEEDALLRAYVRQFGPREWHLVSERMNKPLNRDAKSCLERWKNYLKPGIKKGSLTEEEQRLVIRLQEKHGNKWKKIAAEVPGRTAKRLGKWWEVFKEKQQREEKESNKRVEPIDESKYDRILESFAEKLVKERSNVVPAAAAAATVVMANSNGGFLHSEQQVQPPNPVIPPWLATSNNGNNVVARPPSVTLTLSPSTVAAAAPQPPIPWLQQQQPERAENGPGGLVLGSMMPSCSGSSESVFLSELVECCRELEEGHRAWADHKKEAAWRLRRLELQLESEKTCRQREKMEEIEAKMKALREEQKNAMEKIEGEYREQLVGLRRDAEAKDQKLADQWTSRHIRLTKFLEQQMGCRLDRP

[2] = target: T2, … LEAVES2 (AS2), BiFC fusion (Arabidopsis thaliana) (UniProt O04479); test: as above
T2 sequence: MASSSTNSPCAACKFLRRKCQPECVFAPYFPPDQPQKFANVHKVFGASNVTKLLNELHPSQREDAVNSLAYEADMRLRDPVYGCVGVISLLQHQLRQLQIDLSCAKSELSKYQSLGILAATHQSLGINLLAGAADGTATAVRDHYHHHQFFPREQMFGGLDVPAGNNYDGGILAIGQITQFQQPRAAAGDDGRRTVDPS

[3] = target: T1, … LEAVES1 (AS1), BiFC fusion (Arabidopsis thaliana); test: split reporter; BiFC (YN/YC halves of YFP) in Agrobacterium GV3101-infiltrated N. benthamiana leaves; confocal microscopy; nucleus marked by NLS-mCherry
[4] = target: T2, … LEAVES2 (AS2), BiFC fusion (Arabidopsis thaliana); test: as above
[5] = target: T3, AS2-GFP (Arabidopsis thaliana) (UniProt O04479); test: co-IP; KYPpro::KYP:FLAG/kyp Arabidopsis protoplasts with AS2-GFP
T3 sequence: T2 sequence

Measured: binding

B1: SUPPRESSOR OF …ON 3-9 HOMOLOG 5 (SUVH5), full length, BiFC fusion (enzyme, UniProt O82175 1-794)
chain: MVHSESSILSSLRGGDGGGIPCSKDELAINGSYTDPMGRRKSKRFKVAAESEFSPDFGSITRQLRSRRMQKEFTVETYETRNVSDVCVLSSQADVELIPGEIVAERDSFKSVDCNDMSVGLTEGAESLGVNMQEPMKDRNMPENTSEQNMVEVHPPSISLPEEDMMGSVCRKSITGTKELHGRTISVGRDLSPNMGSKFSKNGKTAKRSISVEEENLVLEKSDSGDHLGPSPEVLELEKSEVWIITDKGVVMPSPVKPSEKRNGDYGEGSMRKNSERVALDKKRLASKFRLSNGGLPSCSSSGDSARYKVKETMRLFHETCKKIMQEEEARPRKRDGGNFKVVCEASKILKSKGKNLYSGTQIIGTVPGVEVGDEFQYRMELNLLGIHRPSQSGIDYMKDDGGELVATSIVSSGGYNDVLDNSDVLIYTGQGGNVGKKKNNEPPKDQQLVTGNLALKNSINKKNPVRVIRGIKNTTLQSSVVAKNYVYDGLYLVEEYWEETGSHGKLVFKFKLRRIPGQPELPWKEVAKSKKSEFRDGLCNVDITEGKETLPICAVNNLDDEKPPPFIYTAKMIYPDWCRPIPPKSCGCTNGCSKSKNCACIVKNGGKIPYYDGAIVEIKPLVYECGPHCKCPPSCNMRVSQHGIKIKLEIFKTESRGWGVRSLESIPIGSFICEYAGELLEDKQAESLTGKDEYLFDLGDEDDPFTINAAQKGNIGRFINHSCSPNLYAQDVLYDHEEIRIPHIMFFALDNIPPLQELSYDYNYKIDQVYDSNGNIKKKFCYCGSAECSGRLY
not listed: [5]
binds: all other assays above

B2: KRYPTONITE/SUPPRESSOR OF …ON 3-9 HOMOLOG 4 (KYP/SUVH4), full length, BiFC fusion (enzyme, UniProt Q8GZB6 1-624)
chain: MAGKRKRANAPDQTERRSSVRVQKVRQKALDEKARLVQERVKLLSDRKSEICVDDTELHEKEEENVDGSPKRRSPPKLTAMQKGKQKLSVSLNGKDVNLEPHLKVTKCLRLFNKQYLLCVQAKLSRPDLKGVTEMIKAKAILYPRKIIGDLPGIDVGHRFFSRAEMCAVGFHNHWLNGIDYMSMEYEKEYSNYKLPLAVSIVMSGQYEDDLDNADTVTYTGQGGHNLTGNKRQIKDQLLERGNLALKHCCEYNVPVRVTRGHNCKSSYTKRVYTYDGLYKVEKFWAQKGVSGFTVYKYRLKRLEGQPELTTDQVNFVAGRIPTSTSEIEGLVCEDISGGLEFKGIPATNRVDDSPVSPTSGFTYIKSLIIEPNVIIPKSSTGCNCRGSCTDSKKCACAKLNGGNFPYVDLNDGRLIESRDVVFECGPHCGCGPKCVNRTSQKRLRFNLEVFRSAKKGWAVRSWEYIPAGSPVCEYIGVVRRTADVDTISDNEYIFEIDCQQTMQGLGGRQRRLRDVAVPMNNGVSQSSEDENAPEFCIDAGSTGNFARFINHSCEPNLFVQCVLSSHQDIRLARVVLFAADNISPMQELTYDYGYALDSVHGPDGKVKQLACYCGALNCRKRLY
not listed: [5]
binds: all other assays above

B3: KYP fused with the 3xFLAG epitope tag driven by the KYP native promoter (KYPpro::KYP:FLAG) (enzyme, UniProt Q8GZB6 1-624)
chain: B2 chain
binds: [5]

B4: SUPPRESSOR OF …ON 3-9 HOMOLOG 6 (SUVH6), full length, BiFC fusion (enzyme, UniProt Q8VZ17 1-790)
chain: MEMGVMENLMVHTEISKVKSQSNGEVEKRGVSVLENGGVCKLDRMSGLKFKRRKVFAVRDFPPGCGSRAMEVKIACENGNVVEDVKVVESLVKEEESLGQRDASENVSDIRMAEPVEVQPLRICLPGGDVVRDLSVTAGDECSNSEQIVAGSGVSSSSGTENIVRDIVVYADESSLGMDNLDQTQPLEIEMSDVAVAKPRLVAGRKKAKKGIACHSSLKVVSREFGEGSRKKKSKKNLYWRDRESLDSPEQLRILGVGTSSGSSSGDSSRNKVKETLRLFHGVCRKILQEDEAKPEDQRRKGKGLRIDFEASTILKRNGKFLNSGVHILGEVPGVEVGDEFQYRMELNILGIHKPSQAGIDYMKYGKAKVATSIVASGGYDDHLDNSDVLTYTGQGGNVMQVKKKGEELKEPEDQKLITGNLALATSIEKQTPVRVIRGKHKSTHDKSKGGNYVYDGLYLVEKYWQQVGSHGMNVFKFQLRRIPGQPELSWVEVKKSKSKYREGLCKLDISEGKEQSPISAVNEIDDEKPPLFTYTVKLIYPDWCRPVPPKSCCCTTRCTEAEARVCACVEKNGGEIPYNFDGAIVGAKPTIYECGPLCKCPSSCYLRVTQHGIKLPLEIFKTKSRGWGVRCLKSIPIGSFICEYVGELLEDSEAERRIGNDEYLFDIGNRYDNSLAQGMSELMLGTQAGRSMAEGDESSGFTIDAASKGNVGRFINHSCSPNLYAQNVLYDHEDSRIPHVMFFAQDNIPPLQELCYDYNYALDQVRDSKGNIKQKPCFCGAAVCRRRLY
not listed: [5]
binds: all other assays above
